Experimental data: PubChem BioAssay AID1259405 (NCATS, 2018)
The whole screen tested about 50,000 reagents; shown is a part drawn at random. Over the whole deposit, about 4,000 (8%) got an active call. 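Mouse siRNA library applied to hamster cells; one well for each siRNA.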 Unmarked entries are inactive. Reagents against one gene are numbered here.

Aim: 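Mouse-designed siRNAs used to find CHO productivity engineering targets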 (primary screen)
Cell system: Chinese hamster CHO-K1 ovary cells with stable secreted eGFP expression
Knock-down reagent: single siRNA against mouse genes, 0.8 pmol siRNA per well (2 µl of 400 nM stock)
Timing: 3 days
Measurement: 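Percent of the per-plate non-targeting control median for intracellular GFP per well by laser scanning cytometry and for cell viability by ATP luminescence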
Direction: GFP, % of control: higher = more GFP per well, higher productivity; viability (ATP), % of control: higher = more viable cells (more ATP)
Rule for the call: 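Called active when intracellular GFP, relative to negative control, is at or above 120%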

What did the screen give for Rusc1 (RUN and SH3 domain containing 1) #1?
GFP, % of control: 79.3; viability (ATP), % of control: 52.6

With Rusc1 (RUN and SH3 domain containing 1) #2, how do the results read?
GFP, % of control: 90; viability (ATP), % of control: 73.9

With Rusc1 (RUN and SH3 domain containing 1) #3, what does the deposit list?
GFP, % of control: 68.5; viability (ATP), % of control: 70.1

For Scamp2 #1, how do the results read?
GFP, % of control: 84.9; viability (ATP), % of control: 92.8

Which result is listed for Scamp2 #2?
GFP, % of control: 68.6; viability (ATP), % of control: 83

For Scamp2 #3, what was measured?
GFP, % of control: 56.8; viability (ATP), % of control: 58.4

For Casp1 (caspase 1) #1, what was measured?
GFP, % of control: 65; viability (ATP), % of control: 72.8

What did the screen give for Casp1 (caspase 1) #2?
GFP, % of control: 58.9; viability (ATP), % of control: 79

What is on record for Casp1 (caspase 1) #3?
GFP, % of control: 50; viability (ATP), % of control: 84.7

Which result is listed for Rnf145 (ring finger protein 145) #1?
GFP, % of control: 112; viability (ATP), % of control: 80.3

With Rnf145 (ring finger protein 145) #2, how do the results read?
GFP, % of control: 78.2; viability (ATP), % of control: 89.7

What did the screen give for Rnf145 (ring finger protein 145) #3?
GFP, % of control: 69; viability (ATP), % of control: 45.9

With A2ml1 (alpha-2-macroglobulin like 1) #1, what was measured?
GFP, % of control: 45.8; viability (ATP), % of control: 47.7

For A2ml1 (alpha-2-macroglobulin like 1) #2, how do the results read?
GFP, % of control: 67.8; viability (ATP), % of control: 69.8

Which result is listed for A2ml1 (alpha-2-macroglobulin like 1) #3?
GFP, % of control: 163 (active); viability (ATP), % of control: 137

What is on record for Faim (Fas apoptotic inhibitory molecule) #1?
GFP, % of control: 70.5; viability (ATP), % of control: 75.7

For Faim (Fas apoptotic inhibitory molecule) #2, what does the deposit list?
GFP, % of control: 61.6; viability (ATP), % of control: 61.7

Which result is listed for Faim (Fas apoptotic inhibitory molecule) #3?
GFP, % of control: 88.2; viability (ATP), % of control: 51.4

For Mical1 #1, how do the results read?
GFP, % of control: 85.6; viability (ATP), % of control: 92.6

With Mical1 #2, what does the deposit list?
GFP, % of control: 114; viability (ATP), % of control: 102

What is on record for Mical1 #3?
GFP, % of control: 65.6; viability (ATP), % of control: 54

What is on record for Itih1 (inter-alpha trypsin inhibitor, heavy chain 1) #1?
GFP, % of control: 67; viability (ATP), % of control: 69.4

What is on record for Itih1 (inter-alpha trypsin inhibitor, heavy chain 1) #2?
GFP, % of control: 91; viability (ATP), % of control: 81.5

What did the screen give for Itih1 (inter-alpha trypsin inhibitor, heavy chain 1) #3?
GFP, % of control: 57.6; viability (ATP), % of control: 66.6

With Hsdl1 (hydroxysteroid dehydrogenase like 1) #1, what was measured?
GFP, % of control: 49.6; viability (ATP), % of control: 41.8

What is on record for Hsdl1 (hydroxysteroid dehydrogenase like 1) #2?
GFP, % of control: 68.5; viability (ATP), % of control: 67.7

What is on record for Hsdl1 (hydroxysteroid dehydrogenase like 1) #3?
GFP, % of control: 93.9; viability (ATP), % of control: 105

With Dnajb12 (DnaJ heat shock protein family (Hsp40) member B12) #1, what does the deposit list?
GFP, % of control: 92.3; viability (ATP), % of control: 43.7

For Dnajb12 (DnaJ heat shock protein family (Hsp40) member B12) #2, what does the deposit list?
GFP, % of control: 96.7; viability (ATP), % of control: 79.7

What did the screen give for Dnajb12 (DnaJ heat shock protein family (Hsp40) member B12) #3?
GFP, % of control: 53.6; viability (ATP), % of control: 52

What is on record for Smndc1 (survival motor neuron domain containing 1) #1?
GFP, % of control: 78.8; viability (ATP), % of control: 95.7

For Smndc1 (survival motor neuron domain containing 1) #2, what does the deposit list?
GFP, % of control: 69.4; viability (ATP), % of control: 79.2

With Smndc1 (survival motor neuron domain containing 1) #3, what was measured?
GFP, % of control: 52.4; viability (ATP), % of control: 66

What is on record for Asb10 (ankyrin repeat and SOCS box-containing 10) #1?
GFP, % of control: 29.2; viability (ATP), % of control: 43.6

How did the screen score Asb10 (ankyrin repeat and SOCS box-containing 10) #2?
GFP, % of control: 58.9; viability (ATP), % of control: 70

How did the screen score Cdin1 (CDAN1 interacting nuclease 1) #1?
GFP, % of control: 26.3; viability (ATP), % of control: 37.4

How did the screen score Cdin1 (CDAN1 interacting nuclease 1) #2?
GFP, % of control: 100; viability (ATP), % of control: 121

What did the screen give for Cdin1 (CDAN1 interacting nuclease 1) #3?
GFP, % of control: 99.6; viability (ATP), % of control: 94.6

With Lbx2 (ladybird homeobox 2) #1, what does the deposit list?
GFP, % of control: 91.3; viability (ATP), % of control: 86.7

With Lbx2 (ladybird homeobox 2) #2, what does the deposit list?
GFP, % of control: 68.1; viability (ATP), % of control: 60.8

For Lbx2 (ladybird homeobox 2) #3, what does the deposit list?
GFP, % of control: 46.7; viability (ATP), % of control: 51.1

For Inip (INTS3 and NABP interacting protein) #1, how do the results read?
GFP, % of control: 92.8; viability (ATP), % of control: 78.1

What is on record for Inip (INTS3 and NABP interacting protein) #2?
GFP, % of control: 85.5; viability (ATP), % of control: 59.6

For Inip (INTS3 and NABP interacting protein) #3, what was measured?
GFP, % of control: 95.6; viability (ATP), % of control: 77.3

With Vps13c (vacuolar protein sorting 13C) #1, how do the results read?
GFP, % of control: 53; viability (ATP), % of control: 65.8

What is on record for Vps13c (vacuolar protein sorting 13C) #2?
GFP, % of control: 78.4; viability (ATP), % of control: 70.2

What is on record for Vps13c (vacuolar protein sorting 13C) #3?
GFP, % of control: 71.5; viability (ATP), % of control: 94

With Ak5 (adenylate kinase 5) #1, how do the results read?
GFP, % of control: 52.9; viability (ATP), % of control: 25.2

For Ak5 (adenylate kinase 5) #2, how do the results read?
GFP, % of control: 102; viability (ATP), % of control: 65.1

With Ak5 (adenylate kinase 5) #3, what does the deposit list?
GFP, % of control: 95.5; viability (ATP), % of control: 93.5

For Mmp15 (matrix metallopeptidase 15) #1, what does the deposit list?
GFP, % of control: 50.7; viability (ATP), % of control: 85.8

How did the screen score Mmp15 (matrix metallopeptidase 15) #2?
GFP, % of control: 120 (active); viability (ATP), % of control: 80.5

Laid out differently: 5 of the entries above.
| target gene | reagent | GFP, % of control | viability (ATP), % of control |
| --- | --- | --- | --- |
| Ak5 (adenylate kinase 5) | 1 | 52.9 | 25.2 |
| Ak5 (adenylate kinase 5) | 2 | 102 | 65.1 |
| Ak5 (adenylate kinase 5) | 3 | 95.5 | 93.5 |
| Mmp15 (matrix metallopeptidase 15) | 1 | 50.7 | 85.8 |
| Mmp15 (matrix metallopeptidase 15) | 2 | 120 (active) | 80.5 |
